Measurements reported in the supplement of paper PMC10849652.
This is one part of the list. Residues, ends and D or L forms follow the SMILES beside them. *: point of attachment. Cbz = O=C(OCc1ccccc1)*

Amino acid sequences for entries named in this document (tags omitted). A change or cut given only in a name is not applied to a line headed by its entry.
UniProt Q9BUK0: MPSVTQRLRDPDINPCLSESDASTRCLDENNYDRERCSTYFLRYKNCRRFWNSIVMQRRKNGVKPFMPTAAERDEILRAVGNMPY
UniProt A8MTT3: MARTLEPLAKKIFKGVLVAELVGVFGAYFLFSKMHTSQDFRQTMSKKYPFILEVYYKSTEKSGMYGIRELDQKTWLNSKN
UniProt Q8N2Z9: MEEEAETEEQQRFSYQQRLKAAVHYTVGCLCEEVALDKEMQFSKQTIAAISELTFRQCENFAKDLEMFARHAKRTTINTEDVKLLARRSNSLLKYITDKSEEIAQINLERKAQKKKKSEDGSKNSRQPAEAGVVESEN
UniProt Q00535, whole entry, looked up: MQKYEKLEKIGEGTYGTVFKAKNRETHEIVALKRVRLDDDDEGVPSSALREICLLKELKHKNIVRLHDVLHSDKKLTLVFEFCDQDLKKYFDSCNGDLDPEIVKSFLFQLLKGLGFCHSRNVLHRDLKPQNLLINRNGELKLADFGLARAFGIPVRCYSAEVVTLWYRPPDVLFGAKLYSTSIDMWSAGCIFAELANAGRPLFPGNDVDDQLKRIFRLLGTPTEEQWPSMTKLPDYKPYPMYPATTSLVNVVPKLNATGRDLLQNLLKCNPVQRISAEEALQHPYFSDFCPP
UniProt O14519: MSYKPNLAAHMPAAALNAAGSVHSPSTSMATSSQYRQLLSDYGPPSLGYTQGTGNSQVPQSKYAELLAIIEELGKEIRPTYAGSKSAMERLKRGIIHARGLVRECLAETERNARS

Columns and labels:
Test in all cases: log2 fold change, soluble protein after heating vs DMSO (PISA); higher = thermal stabilisation; K562 cells, 10 uM, 30 min; active = over 0.2 and 3.5 SD of the protein, either way, in both replicates (recomputed)
erlotinib = compound: C#Cc1cccc(Nc2ncnc3cc(OCCOC)c(OCCOC)cc23)c1 [erlotinib]
Outline: (§1)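 K562 cells at 2×10^6 cells/mL were treated for 30 min with 10 μM compound, and aliquots were heated for 3 min over 48°C-58°C before pooling. Extraction used PBS with 0.5% NP-40 at 4°C, and soluble protein was the supernatant after 21,000xg for 90 min, measured by TMTpro 16plex LC-MS/MS with channel sums equalised. Thermal stability values, relative to control samples and from duplicates, are log2 fold changes.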

[1] = compound: C/C(=N\NC(=O)C1=CC(=CC=C1)S(=O)(=O)N2CCOCC2)/C3=C(C=CC(=C3)Cl)O
Outline: as §1

[2] = compound: C1=CC(=CC=C1C2=NC3=C(N2)C=C(C=C3)C(=O)N)OC4=CC=C(C=C4)Cl
Outline: as §1

[3] = compound: C1=CC2=C(C=CC(=C2)/C=C\3/C(=O)NC(=NCC4=CC=CS4)S3)N=C1
Outline: as §1

[4] = compound: C1=CC2=NC=CN=C2C=C1/C=C/3\C(=O)NC(=O)S3
Outline: as §1

[5] = compound: C1=CC=C(C=C1)C2=NC(=C(N2)C3=CC=NC=C3)C4=CC(=C(C=C4)Cl)O
Outline: as §1

[6] = compound: C1=CC=C2C(=C1)C3=NNC4=CC=CC(=C43)C2=O
Outline: as §1

[7] = compound: C1CCN(C1)C(=O)NC2=CC=CC(=C2)NC3=NC=C(C(=N3)NCCC4=CN=CN4)Br
Outline: as §1

[8] = compound: C1CN(CCC1(CC2=CC=C(C=C2)Cl)N)C3=NC=NC4=C3C=CN4
Outline: as §1

IRAK-1-4 Inhibitor I = compound: C1COCCN1CCN2C3=CC=CC=C3N=C2NC(=O)C4=CC(=CC=C4)[N+](=O)[O-] [IRAK-1-4 Inhibitor I]
Outline: as §1

ibrutinib = compound: C=CC(=O)N1CCC[C@@H](n2nc(-c3ccc(Oc4ccccc4)cc3)c3c(N)ncnc32)C1 [ibrutinib]
Outline: as §1

[9] = compound: CC(=O)c1cnc2ccc(-c3cc(Cl)c(O)c(Cl)c3)nc2c1N[C@H]1CC[C@H](CN(C)C)CC1
Outline: as §1

ralimetinib = compound: CC(C)(C)Cn1c(N)nc2ccc(-c3[nH]c(C(C)(C)C)nc3-c3ccc(F)cc3)nc21 [ralimetinib]
Outline: as §1

[10] = compound: CC(C)C1=C2N=C(C=C(N2N=C1)NCC3=CC=CC=C3)NCCCCCCN
Outline: as §1

[11] = compound: CC(C)C[C@@H](C=O)NC(=O)[C@H](CC(C)C)NC(=O)[C@H](CC(C)C)NC(=O)OCc1ccccc1
Outline: as §1

pinometostat = compound: CC(C)N(C[C@H]1O[C@@H](n2cnc3c(N)ncnc32)[C@H](O)[C@@H]1O)[C@H]1C[C@@H](CCc2nc3cc(C(C)(C)C)ccc3[nH]2)C1 [pinometostat]
Outline: as §1

[12] = compound: CC1=C(C(CC(=O)N1)C2=CC=C(C=C2)C(F)(F)F)C(=O)NC3=C(C=C4C(=C3)C=NN4)F
Outline: as §1

[13] = compound: CC1=C(C2=C(C=C1)C(=O)C3=CC=CC=C3N2CCCN)C
Outline: as §1

[14] = compound: C1=CC(=C(C=C1Cl)C2=NC3=NC=CN=C3C(=N2)NC4=CC=NC=C4)F
Outline: as §1

[15] = compound: CC(C)(O)CC(=O)NCCn1ccc2ncnc(Nc3ccc(Oc4cccc(C(F)(F)F)c4)c(Cl)c3)c21
Outline: as §1

Measured: log2 fold change

CHCHD7 isoform 4 (UniProt Q9BUK0)
inactive: erlotinib 0.094 | [1] -0.013 | [2] -0.029 | [3] -0.013 | [4] 0.007 | [5] -0.012 | [6] -0.002 | [7] -0.011 | [8] 0.01 | IRAK-1-4 Inhibitor I 0.026 | ibrutinib 0.022 | [9] -0.01 | ralimetinib -0.05 | [10] -0.007 | [11] 0.095 | pinometostat -0.069 | [12] 0.089 | [13] -0.095

CEBPZOS (UniProt A8MTT3)
inactive: erlotinib -0.017 | [1] 0.084 | [2] 0.015 | [3] 0.039 | [4] 0.074 | [5] 0.03 | [6] 0.057 | [7] 0.05 | [8] -0.03 | IRAK-1-4 Inhibitor I -0.034 | ibrutinib -0.095 | [9] 0.003 | ralimetinib -0.076 | [10] 0.018 | [11] -0.059 | pinometostat -0.026 | [13] 0

CENPS (UniProt Q8N2Z9)
inactive: erlotinib -0.103 | [1] 0.023 | [14] 0.038 | [2] 0.138 | [3] -0.07 | [4] 0.04 | [6] 0.034 | [7] -0.025 | [8] 0.056 | IRAK-1-4 Inhibitor I -0.143 | ibrutinib -0.034 | [9] -0.097 | [15] -0.001 | [10] 0.004 | pinometostat -0.102 | [12] 0.189 | [13] 0.08

CDK5 (UniProt Q00535)
inactive: erlotinib -0.02 | [1] -0.009 | [14] 0.041 | [2] -0.008 | [3] -0.014 | [4] 0.052 | [5] -0.02 | [7] 0.017 | [8] 0.038 | IRAK-1-4 Inhibitor I 0.008 | ibrutinib -0.009 | [9] 0.038 | ralimetinib 0.032 | [15] -0.07 | [10] -0.021 | [11] 0.043 | pinometostat 0.024 | [13] 0.028

CDK2AP1 (UniProt O14519)
inactive: erlotinib 0.094 | [1] 0.084 | [14] 0.078 | [2] 0.014 | [3] -0.054 | [4] 0.16 | [5] -0.093 | [6] 0.042 | ibrutinib -0.286 | [9] -0.461 | ralimetinib 0.01 | [15] -0.009 | [10] 0.163 | [11] 0.073 | [12] 0.031
